This is one part of the list.
Columns and labels:
Experiment in all cases: glycan array binding signal (z-score within array); higher = stronger binding
Conditions in all cases: glycan notation: IUPAC condensed, linker removed
[1] = molecular target: Fuc(a1-2)[Gal(a1-3)]Gal(b1-4)GlcNAc(b1-2)Man(a1-3)[Fuc(a1-2)[Gal(a1-3)]Gal(b1-4)GlcNAc(b1-2)Man(a1-6)]Man(b1-4)GlcNAc(b1-4)GlcNAc
How it was run: (§1)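 Negative Z-scores can be read as non-binding. The Z-score is calculated within each array and then averaged across arrays of one protein sequence at different concentrations or buffers and across linkers. Arrays, 3228 in all, were curated from the Consortium for Functional Glycomics database and kept only where the protein sequence was available.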

[2] = molecular target: Fuc(a1-2)[Gal(a1-3)]Gal(b1-4)GlcNAc(b1-2)Man(a1-3)[Fuc(a1-2)[Gal(a1-3)]Gal(b1-4)GlcNAc(b1-2)Man(a1-6)]Man(b1-4)GlcNAc(b1-4)[Fuc(a1-6)]GlcNAc
How it was run: as §1

[3] = molecular target: Fuc(a1-2)[Gal(a1-3)]Gal(b1-4)GlcNAc(b1-3)GalNAc
How it was run: as §1

[4] = molecular target: Fuc(a1-2)[Gal(a1-3)]Gal(b1-4)GlcNAc(b1-6)GalNAc
How it was run: as §1

[5] = molecular target: Fuc(a1-2)[Gal(a1-3)]Gal(b1-4)[Fuc(a1-3)]Glc
How it was run: as §1

[6] = molecular target: Fuc(a1-2)[Gal(a1-3)]Gal(b1-4)[Fuc(a1-3)]GlcNAc
How it was run: as §1

[7] = molecular target: Fuc(a1-2)[Gal(a1-3)]Gal(b1-4)[Fuc(a1-3)]GlcNAc(b1-3)GalNAc
How it was run: as §1

[8] = molecular target: Fuc(a1-2)[Gal(a1-4)]Gal(b1-4)GlcNAc
How it was run: as §1

[9] = molecular target: Fuc(a1-2)[GalNAc(a1-3)]Gal
How it was run: as §1

[10] = molecular target: Fuc(a1-2)[GalNAc(a1-3)]Gal(b1-3)GalNAc(a1-3)[Fuc(a1-2)]Gal(b1-4)GlcNAc
How it was run: as §1

[11] = molecular target: Fuc(a1-2)[GalNAc(a1-3)]Gal(b1-3)GalNAc(b1-3)Gal(a1-4)Gal(b1-4)Glc
How it was run: as §1

[12] = molecular target: Fuc(a1-2)[GalNAc(a1-3)]Gal(b1-3)GlcNAc
How it was run: as §1

[13] = molecular target: Fuc(a1-2)[GalNAc(a1-3)]Gal(b1-3)GlcNAc(b1-2)Man(a1-3)[Fuc(a1-2)[GalNAc(a1-3)]Gal(b1-3)GlcNAc(b1-2)Man(a1-6)]Man(b1-4)GlcNAc(b1-4)GlcNAc
How it was run: as §1

[14] = molecular target: Fuc(a1-2)[GalNAc(a1-3)]Gal(b1-3)GlcNAc(b1-2)Man(a1-3)[Fuc(a1-2)[GalNAc(a1-3)]Gal(b1-3)GlcNAc(b1-2)Man(a1-6)]Man(b1-4)GlcNAc(b1-4)[Fuc(a1-6)]GlcNAc
How it was run: as §1

[15] = molecular target: Fuc(a1-2)[GalNAc(a1-3)]Gal(b1-3)GlcNAc(b1-3)GalNAc
How it was run: as §1

[16] = molecular target: Fuc(a1-2)[GalNAc(a1-3)]Gal(b1-3)GlcNAc(b1-6)GalNAc
How it was run: as §1

[17] = molecular target: Fuc(a1-2)[GalNAc(a1-3)]Gal(b1-4)Glc
How it was run: as §1

[18] = molecular target: Fuc(a1-2)[GalNAc(a1-3)]Gal(b1-4)GlcNAc
How it was run: as §1

[19] = molecular target: Fuc(a1-2)[GalNAc(a1-3)]Gal(b1-4)GlcNAc(b1-2)Man
How it was run: as §1

[20] = molecular target: Fuc(a1-2)[GalNAc(a1-3)]Gal(b1-4)GlcNAc(b1-2)Man(a1-3)[Fuc(a1-2)[GalNAc(a1-3)]Gal(b1-4)GlcNAc(b1-2)Man(a1-6)]Man(b1-4)GlcNAc(b1-4)GlcNAc
How it was run: as §1

[21] = molecular target: Fuc(a1-2)[GalNAc(a1-3)]Gal(b1-4)GlcNAc(b1-2)Man(a1-3)[Fuc(a1-2)[GalNAc(a1-3)]Gal(b1-4)GlcNAc(b1-2)Man(a1-6)]Man(b1-4)GlcNAc(b1-4)[Fuc(a1-6)]GlcNAc
How it was run: as §1

[22] = molecular target: Fuc(a1-2)[GalNAc(a1-3)]Gal(b1-4)GlcNAc(b1-3)Gal(b1-4)GlcNAc
How it was run: as §1

[23] = molecular target: Fuc(a1-2)[GalNAc(a1-3)]Gal(b1-4)GlcNAc(b1-3)Gal(b1-4)GlcNAc(b1-3)Gal(b1-4)GlcNAc
How it was run: as §1

[24] = molecular target: Fuc(a1-2)[GalNAc(a1-3)]Gal(b1-4)GlcNAc(b1-3)GalNAc
How it was run: as §1

[25] = molecular target: Fuc(a1-2)[GalNAc(a1-3)]Gal(b1-4)GlcNAc(b1-3)[Fuc(a1-2)[GalNAc(a1-3)]Gal(b1-4)GlcNAc(b1-6)]GalNAc
How it was run: as §1

[26] = molecular target: Fuc(a1-2)[GalNAc(a1-3)]Gal(b1-4)GlcNAc(b1-6)GalNAc
How it was run: as §1

[27] = molecular target: Fuc(a1-2)[GalNAc(a1-3)]Gal(b1-4)[Fuc(a1-3)]GlcNAc
How it was run: as §1

[28] = molecular target: Fuc(a1-2)[GalNAc(a1-3)]Gal(b1-4)[Fuc(a1-3)]GlcNAc(b1-3)GalNAc
How it was run: as §1

[29] = molecular target: Fuc(a1-2)[GalNAc(a1-4)]Gal(b1-4)GlcNAc
How it was run: as §1

[30] = molecular target: Fuc(a1-2)[GalNAc(b1-3)]Gal
How it was run: as §1

B1: AntigenI/IIC123 (Streptococcus mutans), C9E3B4 (protein)
chain: MASMTGGQQMGRIHFHYFKLAVQPQVNKEIRNNNDINIDRTLVAKQSVVKFQLKTADLPAGRDETTSFVLVDPLPSGYQFNPEATKAASPGFDVTYDNATNTVTFKATAATLATFNADLTKSVATIYPTVVGQVLNDGATYKNNFTLTVNDAYGIKSNVVRVTTPGKPNDPDNPNNNYIKPTKVNKNENGVVIDGKTVLAGSTNYYELTWDLDQYKNDRSSADTIQKGFYYVDDYPEEALELRQDLVKITDANGNEVTGVSVDNYTNLEAAPQEIRDVLSKAGIRPKGAFQIFRADNPREFYDTYVKTGIDLKIVSPMVVKKQMGQTGGSYENQAYQIDFGNGYASNIIINNVPKINPKKDVTLTLDPADTNNVDGQTIPLNTVFNYRLIGGIIPADHSEELFEYNFYDDYDQTGDHYTGQYKVFAKVDITFKDGSIIKSGAELTQYTTAEVDTAKGAITIKFKEAFLRSVSIDSAFQAESYIQMKRIAVGTFENTYINTVNGVTYSSLEHHHHHH
[1]
  glycan array binding signal (z-score): 1.57
[2]
  glycan array binding signal (z-score): -0.093
[3]
  glycan array binding signal (z-score): -0.914
[4]
  glycan array binding signal (z-score): -0.838
[5]
  glycan array binding signal (z-score): -0.437
[6]
  glycan array binding signal (z-score): -0.318
[7]
  glycan array binding signal (z-score): 0.247
[8]
  glycan array binding signal (z-score): 0.108
[9]
  glycan array binding signal (z-score): -0.896
[10]
  glycan array binding signal (z-score): -0.867
[11]
  glycan array binding signal (z-score): -0.644
[12]
  glycan array binding signal (z-score): -0.781
[13]
  glycan array binding signal (z-score): -0.012
[14]
  glycan array binding signal (z-score): 1.14
[15]
  glycan array binding signal (z-score): 2.85
[16]
  glycan array binding signal (z-score): -0.614
[17]
  glycan array binding signal (z-score): -0.076
[18]
  glycan array binding signal (z-score): -0.789
[19]
  glycan array binding signal (z-score): -0.357
[20]
  glycan array binding signal (z-score): -0.028
[21]
  glycan array binding signal (z-score): 0.373
[22]
  glycan array binding signal (z-score): -0.941
[23]
  glycan array binding signal (z-score): 2.42
[24]
  glycan array binding signal (z-score): -0.86
[25]
  glycan array binding signal (z-score): -0.412
[26]
  glycan array binding signal (z-score): 0.022
[27]
  glycan array binding signal (z-score): 0.143
[28]
  glycan array binding signal (z-score): 2.63
[29]
  glycan array binding signal (z-score): -0.213
[30]
  glycan array binding signal (z-score): -0.66
